Source: patent US8017589B2, “Avermectin B1 and avermectin B1 monosaccharide derivatives having an alkoxymethyl substituent in the 4″-or 4′-position” (Syngenta Crop Protection LLC, priority 2002, dated 2011)
Some results were stated once for a whole list of compounds, not compound by compound.

Test system: Spodoptera littoralis
Test: Action against Spodoptera littoralis, systemic (maize seedlings in test solution)
Assay type: in vivo
Conditions: maize seedlings in test solution 6 days, L1 larvae on cut leaves, 4 days later, concentration not given

Compound: CCC(C)[C@H]1O[C@]2(C=C[C@@H]1C)C[C@@H]1C[C@@H](C/C=C(\C)[C@@H](OC3C[C@H](OC)[C@@H](OCOCCN)[C@H](C)O3)C(C)/C=C/C=C3\CO[C@@H]4[C@H](O)C(C)=C[C@@H](C(=O)O1)[C@]34O)O2 (stereo partly shown) [Compound 3.19]
- percentage reduction in population (% activity): over 80%
